{"source": "the supplement of paper PMC10398353", "note": "Structures can show the parent of a compound that is named as a salt. ± gives the standard deviation of the averaged measurements. The list shows a part of the results. The data scatter; read single values as rough.", "data": [{"test_system": "Salmonella enterica serovar Typhimurium ST313 D23580", "assay": "normalized bacterial growth (OD600 20 h minus 0 h, interquartile-mean normalized) (fraction of plate interquartile mean); higher = more bacterial growth (less inhibition)", "settings": "LPM (pH 5.8, low phosphate, low Mg2+), concentration: 10 µM, temperature: 37 °C", "values": [{"smiles": "OCCN1CCN(CCCN2c3ccccc3Sc3ccc(Cl)cc32)CC1", "note": "[Perphenazine]", "normalized bacterial growth": 1.16}, {"smiles": "CN(C)CCc1c[nH]c2ccc(Cn3cncn3)cc12", "normalized bacterial growth": 1.44}, {"smiles": "NCCCCCCCCCCN", "note": "[\"1,10-Diaminodecane\"]", "normalized bacterial growth": 1.03}, {"smiles": "COc1cc(/C=C/C(=O)O)cc(OC)c1OC", "normalized bacterial growth": 0.969}, {"smiles": "CC1(C)OC(=O)NC1=O", "normalized bacterial growth": 1.24}, {"smiles": "N=C(N)NCC1COC2(CCCCC2)O1", "note": "(stereo not drawn) [Guanadrel sulfate]", "normalized bacterial growth": 0.957}, {"smiles": "CCC[C@H](N[C@@H](C)C(=O)N1[C@H](C(=O)O)C[C@@H]2CCCC[C@@H]21)C(=O)OCC", "normalized bacterial growth": 1.06}, {"smiles": "O=c1c(-c2ccc(O)cc2)coc2cc(O[C@@H]3O[C@H](CO)[C@@H](O)[C@H](O)[C@H]3O)cc(O)c12", "normalized bacterial growth": 1.23}, {"smiles": "Cn1nnnc1SCC1=C(C(=O)O)N2C(=O)[C@@H](NC(=O)[C@H](O)c3ccccc3)[C@H]2SC1", "note": "[Cefamandole sodium salt]", "normalized bacterial growth": 1.2}, {"smiles": "Cn1nnnc1SCC1=C(C(=O)O)N2C(=O)[C@@H](NC(=O)[C@H](O)c3ccccc3)[C@H]2SC1", "normalized bacterial growth": 1.08}, {"smiles": "COc1ccc(NS(=O)(=O)c2ccc(N)cc2)nn1", "normalized bacterial growth": 1.21}, {"smiles": "Nc1ccc(C(=O)NCC(=O)O)cc1", "normalized bacterial growth": 0.862}, {"smiles": "CCN(CC)CCNC(=O)c1cc(S(C)(=O)=O)ccc1OC", "note": "[Tiapride hydrochloride]", "normalized bacterial growth": 1.15}, {"smiles": "O=C(CCCN1CC=C(n2c(=O)[nH]c3ccccc32)CC1)c1ccc(F)cc1", "normalized bacterial growth": 0.543}, {"smiles": "O=C(CCCN1CC=C(n2c(=O)[nH]c3ccccc32)CC1)c1ccc(F)cc1", "note": "[Droperidol]", "normalized bacterial growth": 1.08}, {"smiles": "Oc1c(I)cc(I)c2cccnc12", "normalized bacterial growth": 0.187}, {"smiles": "O=c1[nH]c2ccccc2c2ccccc12", "note": "[6(5H)-Phenanthridinone]", "normalized bacterial growth": 0.826}, {"smiles": "C#CCN(C)Cc1ccccc1", "note": "[Pargyline hydrochloride]", "normalized bacterial growth": 1.18}, {"smiles": "CC(=O)O[C@H]1CC[C@@]2(C)[C@H](CC[C@@H]3[C@@H]2CC[C@]2(C)[C@@H]4[C@H](C[C@@H]32)O[C@]2(CC[C@@H](C)CO2)[C@H]4C)C1", "normalized bacterial growth": 0.937}, {"smiles": "CCCCCC(C)N", "note": "(stereo not drawn)", "normalized bacterial growth": 0.914}, {"smiles": "COc1ccc2cc(CCC(C)=O)ccc2c1", "normalized bacterial growth": 1.07}, {"smiles": "Cc1cccc(/C=C/c2ccccc2)n1", "normalized bacterial growth": 0.913}, {"smiles": "O=C(O)CCC(=O)OC[C@@H](NC(=O)C(Cl)Cl)[C@H](O)c1ccc([N+](=O)[O-])cc1", "normalized bacterial growth": 0.601}, {"smiles": "CCOc1ccc(C(=O)c2cc(O)c(OC)c(OC)c2O)cc1", "normalized bacterial growth": 0.76}, {"smiles": "CCn1cc(C(=O)O)c(=O)c2ccc(C)nc21", "normalized bacterial growth": 0.0195}, {"smiles": "CCn1cc(C(=O)O)c(=O)c2ccc(C)nc21", "note": "[Nalidixic acid sodium]", "normalized bacterial growth": 0.0308}, {"smiles": "C[C@H]1[C@@H](O)O[C@@H]2O[C@@]3(C)CC[C@H]4[C@H](C)CC[C@@H]1[C@@]24OO3", "normalized bacterial growth": 0.894}, {"smiles": "COc1ccc(-c2oc3c(CC=C(C)C)c(O[C@@H]4O[C@H](CO)[C@@H](O)[C@H](O)[C@H]4O)cc(O)c3c(=O)c2O[C@@H]2O[C@@H](C)[C@H](O)[C@@H](O)[C@H]2O)cc1", "normalized bacterial growth": 0.757}, {"smiles": "O=c1c(O)cccc2cc(O)c(O)c(O)c12", "normalized bacterial growth": 0.168}, {"smiles": "Cc1ccc(S(=O)(=O)NC(=O)NN2CC3CCCC3C2)cc1", "note": "(stereo not drawn)", "normalized bacterial growth": 1.08}, {"smiles": "COc1ccc(-c2cc(=O)c3c(O)cc(O)cc3o2)cc1", "normalized bacterial growth": 0.879}, {"smiles": "c1ccc(C(NCCNC(c2ccccc2)c2ccccc2)c2ccccc2)cc1", "normalized bacterial growth": 0.788}, {"smiles": "CC(=O)N[C@@H](CC(=O)N[C@@H](CCC(=O)O)C(=O)O)C(=O)O", "normalized bacterial growth": 1.16}, {"smiles": "Nc1nc(=O)c2[nH]c(=O)cnc2[nH]1", "normalized bacterial growth": 1.15}, {"smiles": "O=c1c(O)c(-c2cc(O)c(O)c(O)c2)oc2cc(O)cc(O)c12", "normalized bacterial growth": 1.13}, {"smiles": "O=C(O)c1cc2ccccc2[nH]1", "normalized bacterial growth": 1.07}, {"smiles": "CCn1cc(C(=O)O)c(=O)c2cnc(N3CCNCC3)nc21", "normalized bacterial growth": 0.953}, {"smiles": "COc1cc2nc(N3CCN(C(=O)c4ccco4)CC3)nc(N)c2cc1OC", "note": "[Prazosin hydrochloride]", "normalized bacterial growth": 1.2}, {"smiles": "NCCS(=O)(=O)O", "note": "[Taurine]", "normalized bacterial growth": 1.15}, {"smiles": "N#CC(C#N)=C(N)/C(C#N)=C/c1ccc(O)cc1", "note": "[Tyrphostin AG 112]", "normalized bacterial growth": 1.21}, {"smiles": "CC(=O)Oc1ccc2c(c1C(C)C)CCC1C(C)(C)CCC[C@]21C", "note": "(stereo partly drawn)", "normalized bacterial growth": 0.98}, {"smiles": "COc1nc(C)nc(Cl)c1NC1=NCCN1", "note": "[Moxonidine hydrochloride]", "normalized bacterial growth": 1.33}, {"smiles": "CC(=O)OC1CCC23CC1(C)CCC2C(C)(C)CC3OC(C)=O", "note": "(stereo not drawn)", "normalized bacterial growth": 0.693}, {"smiles": "C=CC[C@@H]1/C=C(\\C)C[C@H](C)C[C@H](OC)[C@H]2O[C@@](O)(C(=O)C(=O)N3CCCC[C@H]3C(=O)O[C@H](/C(C)=C/[C@@H]3CC[C@@H](O)[C@H](OC)C3)[C@H](C)[C@@H](O)CC1=O)[C@H](C)C[C@@H]2OC", "normalized bacterial growth": 0.872}, {"smiles": "O=Nc1c(-c2c(O)[nH]c3ccccc23)[nH]c2ccccc12", "note": "[Indirubin-3'-oxime]", "normalized bacterial growth": 0.878}, {"smiles": "NC[C@H]1O[C@H](O[C@H]2[C@H](O[C@@H]3O[C@H](CO)[C@@H](O)[C@H]3O)[C@@H](O)[C@H](N)C[C@@H]2N)[C@H](N)[C@@H](O)[C@@H]1O", "note": "[Ribostamycin sulfate salt]", "normalized bacterial growth": 1.24}, {"smiles": "NC[C@H]1O[C@H](O[C@H]2[C@H](O[C@@H]3O[C@H](CO)[C@@H](O)[C@H]3O)[C@@H](O)[C@H](N)C[C@@H]2N)[C@H](N)[C@@H](O)[C@@H]1O", "normalized bacterial growth": 1.24}, {"smiles": "CCCCC/C=C\\C[C@@H](O)/C=C/c1cccc(C[C@@H](O)CCCCO)n1", "normalized bacterial growth": 0.745}, {"smiles": "COc1ccc2[nH]cc(CCNC(C)=O)c2c1", "normalized bacterial growth": 1.34}, {"smiles": "O=C([O-])c1ccccc1O.[Na+]", "normalized bacterial growth": 1.33}, {"smiles": "COc1ccc(C(=O)NCc2cccnc2)cc1C(=O)NCc1cccnc1", "note": "[Picotamide]", "normalized bacterial growth": 1.07}, {"smiles": "COc1ccc(C(=O)NCc2cccnc2)cc1C(=O)NCc1cccnc1", "note": "[Picotamide monohydrate]", "normalized bacterial growth": 1.19}, {"smiles": "CC1(C)CCC[C@](C)([C@H]2CC[C@]3(C)[C@@H]2[C@H](O)C[C@@H]2[C@@]4(C)CC[C@H](O)C(C)(C)[C@@H]4CC[C@]23C)O1", "normalized bacterial growth": 0.91}, {"smiles": "N=C(N)c1ccccc1", "note": "[Benzamidine hydrochloride]", "normalized bacterial growth": 0.778}, {"smiles": "O=C(NCCNCC(O)COc1ccc(O)cc1)N1CCOCC1", "note": "(stereo not drawn) [Xamoterol hemifumarate]", "normalized bacterial growth": 0.872}, {"smiles": "CCN(Cc1ccncc1)C(=O)C(CO)c1ccccc1", "note": "(stereo not drawn) [Tropicamide]", "normalized bacterial growth": 0.787}, {"smiles": "OC(CCN1CCCCC1)(c1ccccc1)C1CC2C=CC1C2", "note": "(stereo not drawn)", "normalized bacterial growth": 0.71}, {"smiles": "OC(CCN1CCCCC1)(c1ccccc1)C1CC2C=CC1C2", "note": "(stereo not drawn) [Biperiden hydrochloride]", "normalized bacterial growth": "0.909 ± 0.28"}]}]}
